This passage reports binding results from PMC4274107.

Protein sequences, listed by entry. Tags and fused reporters are not part of them. Lines headed by an entry give the natural chain unless they say otherwise; changes in a name come on top.
UniProt Q9BPZ7: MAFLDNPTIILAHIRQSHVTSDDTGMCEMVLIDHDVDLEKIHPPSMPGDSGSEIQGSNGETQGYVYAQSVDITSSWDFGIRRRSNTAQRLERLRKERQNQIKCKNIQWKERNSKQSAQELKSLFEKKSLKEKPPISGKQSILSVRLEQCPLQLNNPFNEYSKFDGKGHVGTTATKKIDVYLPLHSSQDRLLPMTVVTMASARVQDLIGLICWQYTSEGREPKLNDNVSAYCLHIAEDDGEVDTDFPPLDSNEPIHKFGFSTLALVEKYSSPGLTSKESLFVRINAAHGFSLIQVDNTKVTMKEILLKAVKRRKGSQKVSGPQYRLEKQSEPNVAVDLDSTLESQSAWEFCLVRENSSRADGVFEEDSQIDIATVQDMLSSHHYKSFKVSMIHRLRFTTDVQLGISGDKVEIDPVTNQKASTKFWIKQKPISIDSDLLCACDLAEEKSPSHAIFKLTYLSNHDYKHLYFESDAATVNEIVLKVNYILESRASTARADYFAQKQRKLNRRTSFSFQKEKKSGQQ
UniProt Q92963: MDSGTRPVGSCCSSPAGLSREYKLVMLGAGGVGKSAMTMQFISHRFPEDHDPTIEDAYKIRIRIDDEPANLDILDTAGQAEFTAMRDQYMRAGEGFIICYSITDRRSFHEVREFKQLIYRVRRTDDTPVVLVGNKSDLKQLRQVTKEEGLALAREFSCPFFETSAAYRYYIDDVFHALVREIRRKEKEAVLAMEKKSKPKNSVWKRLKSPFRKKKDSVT

This assay addresses GFP-tagged Sin1 (stress-activated protein kinase (SAPK)-interacting protein 1) (UniProt Q9BPZ7). Briefly: co-IP; reciprocal: lysates (400 µg) of co-transfected HEK-293T cells; immunoprecipitation with anti-GFP antibody and protein G-sepharose, 4°C; washes with lysis buffer (1% Triton X-100, 150 mM NaCl) and with 500 mM NaCl; blotted for HA-Rit^Q79L and Sin1.

No constants are given. Whether binding was seen depends on the method and setting. Binding seen in cells or lysates may run through a third protein. Some binding calls cover weakened binding; strength is not graded here.

In the case of “HA-tagged active Rit (Rit^Q79L) (from UniProt Q92963 1-219)”, the binding entry is given as “binds”.
